From patent US20190284243A1, “BINDING PEPTIDES” (University of Copenhagen, priority 2016, published 2019) come the findings set out here.

Sequences of proteins named here, by UniProt entry; tags and fusion partners are left off. Residues count along the entry.
UniProt P22301, residues 19-178: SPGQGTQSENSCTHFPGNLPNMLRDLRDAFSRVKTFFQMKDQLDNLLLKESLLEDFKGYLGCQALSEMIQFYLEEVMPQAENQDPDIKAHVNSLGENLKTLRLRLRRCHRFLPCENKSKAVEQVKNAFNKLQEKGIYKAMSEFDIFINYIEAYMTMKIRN
UniProt P05231, residues 30-212: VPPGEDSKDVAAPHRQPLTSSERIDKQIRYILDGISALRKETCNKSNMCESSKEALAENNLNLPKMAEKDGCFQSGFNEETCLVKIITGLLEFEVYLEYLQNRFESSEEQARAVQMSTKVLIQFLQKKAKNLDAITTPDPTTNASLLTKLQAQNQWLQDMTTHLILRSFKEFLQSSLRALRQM
UniProt P60568, residues 21-153: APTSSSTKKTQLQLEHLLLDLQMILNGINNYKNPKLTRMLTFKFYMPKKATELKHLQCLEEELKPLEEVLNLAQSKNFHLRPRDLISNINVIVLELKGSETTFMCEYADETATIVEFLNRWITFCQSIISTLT

Results are given in words; binding and its absence hold for the method and conditions named. Some results given as binding are weak or reduced against the parent protein; the word gives no strength.

The target of assay [1] is Interleukin 10 (UniProt P22301). Nature of the assay: Table 1 grade; context Bead.
Assay [2] addresses Interleukin 6 (UniProt P05231). As to the kind of experiment: Table 1 grade; context Bead.
Assay [3] deals with Interleukin 6 (UniProt P05231). Nature of the assay: sandwich assay on PEGA beads, 20 nM IL6, 100 nM peptide F, ROX fluorescence.
Assay [4] deals with Interleukin 6 (UniProt P05231). As to the kind of experiment: sandwich assay on PEGA beads, 20 nM IL6, 20 min.
Assay [5] has as its target T1, β-body (2) … (SEQ ID NO: 58).
T1 sequence (peptide, with a fluorescent probe (2-F*) or on beads, by assay): TTYTYPGDTFTI
Nature of the assay: fluorescent (2) on beads modified with (2), fluorescence microscopy.

In assay [6] the target is T2, β-body (1) … (SEQ ID NO: 57).
T2 sequence (peptide, with a fluorescent probe (1-F*) or on beads, by assay): TYTYTYPGLTRTHT
As to the kind of experiment: fluorescent (2) on beads modified with (1), fluorescence microscopy.

Assay [7] shares this target. Nature of the assay: fluorescent (1) on beads modified with (1), fluorescence microscopy.
In assay [8] the target is T1, β-body (2) … (SEQ ID NO: 58). Nature of the assay: fluorescent (1) on beads modified with (2), fluorescence microscopy.
Assay [9] deals with Interleukin 10 (UniProt P22301). As to the kind of experiment: Table 1 grade; context RoxNH.
Assay [10] concerns the target Interleukin 6 (UniProt P05231). As to the kind of experiment: Table 1 grade; context RoxNH.
In assay [11] the target is Interleukin 2 (UniProt P60568). Nature of the assay: Table 1 grade; context Bead.
The target in assay [12] is Interleukin 2 (UniProt P60568). As to the kind of experiment: sandwich assay on PEGA beads, 50 nM IL2, 100 nM peptide D, ROX fluorescence.
Assay [13] concerns the target Interleukin 2 (UniProt P60568). Nature of the assay: sandwich assay on PEGA beads.
Assay [14] has as its target Interleukin 2 (UniProt P60568). Nature of the assay: Table 1 grade; context RoxNH.
Assay [15] concerns the target Enhanced Green Fluorescent Protein [GFP: P42212]. Nature of the assay: β-body beads incubated with E. coli lysate.
Assay [16] has the same target. As to the kind of experiment: fluorescence microscopy of two bead types incubated with eGFP.
For assay [17] the target is unchanged. As to the kind of experiment: fluorescence microscopy of two bead types incubated with 60 nM GFP.
The target is the same in assay [18]. Nature of the assay: Table 1 grade; binding test not described.
Assay [19] has the same target. Nature of the assay: β-body beads incubated with E. coli lysate, EGFP 150 µM or 500 nM.

B1: β-body SEQ ID NO: 20 (…) (designed binder)
peptide: ATNTLTMTWPGRTNTDTFTW
With B1, the binding result in [1] was “binds”.

B2: Ligand 6: … (SEQ ID NO: 16) linked to the fluorophore RhodamineX (designed binder)
peptide: TMTDTDTYPGFTDTLTHA
modifications: linked to the fluorophore RhodamineX (Example 3)
Regarding B2, the binding result in assay [2], in [3] and in [4] was “binds” in each case.

B3: β-body (2) … (SEQ ID NO: 58) (designed binder)
peptide: TTYTYPGDTFTI
modifications: with a fluorescent probe (2-F*) or on beads, by assay
On to B3, for which the binding result in [5] and in [6] was “binds” in each case.

B4: β-body (1) … (SEQ ID NO: 57) (designed binder)
peptide: TYTYTYPGLTRTHT
modifications: with a fluorescent probe (1-F*) or on beads, by assay
Regarding B4, the binding entry in [7] and in assay [8] was “binds” each time.

B5: β-body SEQ ID NO: 21 (…) (designed binder)
peptide: TKTRTYTIPGERYTDTWA
B5: the binding entry in assay [9] is recorded as “binds”.

B6: Ligand 5: … (SEQ ID NO: 17) linked to PEGA1900-beads (designed binder)
peptide: HTWTDTLTRPGYTVTHTLTL
modifications: attached to PEGA1900 bead via hydroxymethylbenzamide (HMBA) linker (Example 3)
Consider B6, for which the binding result in assay [10], in [3] and in assay [4] was “binds” in each case.

B7: Ligand 4: … (SEQ ID NO: 14) linked to the fluorophore RhodamineX (designed binder)
peptide: TRTLTYTEPGITQTKTEA
modifications: linked to the fluorophore RhodamineX (Example 3)
On to B7, for which the binding entry in [11], in [12] and in [13] was “binds” throughout.

B8: Ligand 3: … (SEQ ID NO: 15) on PEGA1900 resin beads (designed binder)
peptide: NTVTNTMTRPGVTETVTQTD
modifications: attached to PEGA1900 bead via hydroxymethylbenzamide (HMBA) linker (Example 3)
As for B8, the binding entry in assay [12], in assay [13] and in [14] was “binds” each time.

B9: β-body SEQ ID NO: 1 (…) (designed binder)
peptide: TETKTVTITRPKMTWTFTHTVTG
Take B9: the binding entry in assay [15], in assay [16], in assay [17], in assay [18] and in [19] was “binds” throughout.
